# From the supplement of paper PMC8728848
# Some of the results follow.
# What was measured:
# Assay in all cases: glycan array binding signal (z-score within array); higher = stronger binding
# Settings in all cases: glycan notation: IUPAC condensed, linker removed
# [1] = target: Gal(b1-4)GlcNAc(b1-3)Gal(b1-4)GlcNAc(b1-3)Gal(b1-4)GlcNAc(b1-3)Gal(b1-4)GlcNAc(b1-2)Man(a1-3)[Gal(b1-4)GlcNAc(b1-3)Gal(b1-4)GlcNAc(b1-3)Gal(b1-4)GlcNAc(b1-3)Gal(b1-4)GlcNAc(b1-2)Man(a1-6)]Man(b1-4)GlcNAc(b1-4)[Fuc(a1-6)]GlcNAc
# Summary of the method: (§1)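 Glycan array data came from 3228 arrays in the Consortium for Functional Glycomics database, and only arrays with an available protein sequence were kept. Glycan names were put into IUPAC-condensed notation, and columns mapping to the same glycan were averaged. The binding signal is a within-array Z-score, averaged across arrays of one protein sequence run at different concentrations or buffers and across linkers. A negative Z-score can be read as non-binding.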
# [2] = target: Gal(b1-4)GlcNAc(b1-3)Gal(b1-4)GlcNAc(b1-3)Gal(b1-4)GlcNAc(b1-3)Gal(b1-4)GlcNAc(b1-2)[Gal(b1-4)GlcNAc(b1-3)Gal(b1-4)GlcNAc(b1-3)Gal(b1-4)GlcNAc(b1-3)Gal(b1-4)GlcNAc(b1-6)]Man(a1-6)[Gal(b1-4)GlcNAc(b1-3)Gal(b1-4)GlcNAc(b1-3)Gal(b1-4)GlcNAc(b1-3)Gal(b1-4)GlcNAc(b1-2)Man(a1-3)]Man(b1-4)GlcNAc(b1-4)[Fuc(a1-6)]GlcNAc
# Summary of the method: as §1
# [3] = target: Gal(b1-4)GlcNAc(b1-3)Gal(b1-4)GlcNAc(b1-3)Gal(b1-4)GlcNAc(b1-3)Gal(b1-4)GlcNAc(b1-3)Gal(b1-4)GlcNAc(b1-2)Man(a1-3)[Gal(b1-4)GlcNAc(b1-3)Gal(b1-4)GlcNAc(b1-3)Gal(b1-4)GlcNAc(b1-3)Gal(b1-4)GlcNAc(b1-3)Gal(b1-4)GlcNAc(b1-2)Man(a1-6)]Man(b1-4)GlcNAc(b1-4)GlcNAc
# Summary of the method: as §1
# [4] = target: Gal(b1-4)GlcNAc(b1-3)Gal(b1-4)GlcNAc(b1-3)Gal(b1-4)GlcNAc(b1-3)Gal(b1-4)GlcNAc(b1-3)Gal(b1-4)GlcNAc(b1-2)Man(a1-3)[Gal(b1-4)GlcNAc(b1-3)Gal(b1-4)GlcNAc(b1-3)Gal(b1-4)GlcNAc(b1-3)Gal(b1-4)GlcNAc(b1-3)Gal(b1-4)GlcNAc(b1-2)Man(a1-6)]Man(b1-4)GlcNAc(b1-4)[Fuc(a1-6)]GlcNAc
# Summary of the method: as §1
# [5] = target: Gal(b1-4)GlcNAc(b1-3)Gal(b1-4)GlcNAc(b1-3)Gal(b1-4)GlcNAc(b1-3)Gal(b1-4)GlcNAc(b1-3)Gal(b1-4)GlcNAc(b1-2)[Gal(b1-4)GlcNAc(b1-3)Gal(b1-4)GlcNAc(b1-3)Gal(b1-4)GlcNAc(b1-3)Gal(b1-4)GlcNAc(b1-3)Gal(b1-4)GlcNAc(b1-6)]Man(a1-6)[Gal(b1-4)GlcNAc(b1-3)Gal(b1-4)GlcNAc(b1-3)Gal(b1-4)GlcNAc(b1-3)Gal(b1-4)GlcNAc(b1-3)Gal(b1-4)GlcNAc(b1-2)Man(a1-3)]Man(b1-4)GlcNAc(b1-4)[Fuc(a1-6)]GlcNAc
# Summary of the method: as §1
# [6] = target: Gal(b1-4)GlcNAc(b1-3)Gal(b1-4)GlcNAc(b1-3)Gal(b1-4)GlcNAc(b1-3)Gal(b1-4)GlcNAc(b1-3)Gal(b1-4)GlcNAc(b1-3)Gal(b1-4)GlcNAc(b1-2)Man(a1-3)[Gal(b1-4)GlcNAc(b1-3)Gal(b1-4)GlcNAc(b1-3)Gal(b1-4)GlcNAc(b1-3)Gal(b1-4)GlcNAc(b1-3)Gal(b1-4)GlcNAc(b1-3)Gal(b1-4)GlcNAc(b1-2)Man(a1-6)]Man(b1-4)GlcNAc(b1-4)GlcNAc
# Summary of the method: as §1
# [7] = target: Gal(b1-4)GlcNAc(b1-3)Gal(b1-4)GlcNAc(b1-3)GalNAc
# Summary of the method: as §1
# [8] = target: Gal(b1-4)GlcNAc(b1-3)Gal(b1-4)GlcNAc(b1-3)[Gal(b1-4)GlcNAc(b1-3)Gal(b1-4)GlcNAc(b1-6)]GalNAc
# Summary of the method: as §1
# [9] = target: Gal(b1-4)GlcNAc(b1-3)Gal(b1-4)GlcNAc(b1-6)[Gal(b1-3)]GalNAc
# Summary of the method: as §1
# [10] = target: Gal(b1-4)GlcNAc(b1-3)Gal(b1-4)[Fuc(a1-3)]GlcNAc(b1-3)Gal(b1-4)[Fuc(a1-3)]GlcNAc
# Summary of the method: as §1
# [11] = target: Gal(b1-4)GlcNAc(b1-3)GalNAc
# Summary of the method: as §1
# [12] = target: Gal(b1-4)GlcNAc(b1-3)[Fuc(a1-3)GlcNAc(b1-6)]Gal(b1-4)Glc
# Summary of the method: as §1
# [13] = target: Gal(b1-4)GlcNAc(b1-3)[Gal(b1-4)GlcNAc(b1-6)]Gal(b1-4)GlcNAc
# Summary of the method: as §1
# [14] = target: Gal(b1-4)GlcNAc(b1-3)[GlcNAc(b1-6)]Gal(b1-4)GlcNAc
# Summary of the method: as §1
# [15] = target: Gal(b1-4)GlcNAc(b1-6)Gal(b1-4)GlcNAc
# Summary of the method: as §1
# [16] = target: Gal(b1-4)GlcNAc(b1-6)GalNAc
# Summary of the method: as §1
# [17] = target: Gal(b1-4)GlcNAc(b1-6)[Gal(b1-3)]GalNAc
# Summary of the method: as §1
# [18] = target: Gal(b1-4)GlcNAc(b1-6)[Gal(b1-4)GlcNAc(b1-3)]GalNAc
# Summary of the method: as §1
# Gal(b1-4)GlcNAc6P = target: Gal(b1-4)GlcNAc6P
# Summary of the method: as §1
# Gal(b1-6)Gal = target: Gal(b1-6)Gal
# Summary of the method: as §1
# Gal3S(b1-3)GalNAc = target: Gal3S(b1-3)GalNAc
# Summary of the method: as §1
# Gal3S(b1-3)GlcNAc = target: Gal3S(b1-3)GlcNAc
# Summary of the method: as §1
# [19] = target: Gal3S(b1-3)[Fuc(a1-4)]GlcNAc
# Summary of the method: as §1
# Gal3S(b1-4)Glc = target: Gal3S(b1-4)Glc
# Summary of the method: as §1
# Gal3S(b1-4)Glc6S = target: Gal3S(b1-4)Glc6S
# Summary of the method: as §1
# Gal3S(b1-4)GlcNAc = target: Gal3S(b1-4)GlcNAc
# Summary of the method: as §1
# [20] = target: Gal3S(b1-4)[Fuc(a1-3)]Glc6S
# Summary of the method: as §1
# [21] = target: Gal3S(b1-4)[Fuc(a1-3)]GlcNAc
# Summary of the method: as §1
# [22] = target: Gal3S(b1-4)[Fuc(a1-3)]GlcNAc6S
# Summary of the method: as §1
# Gal3S4S(b1-4)GlcNAc = target: Gal3S4S(b1-4)GlcNAc
# Summary of the method: as §1
# Gal3S6S(b1-4)GlcNAc = target: Gal3S6S(b1-4)GlcNAc
# Summary of the method: as §1
# Gal3S6S(b1-4)GlcNAc6S = target: Gal3S6S(b1-4)GlcNAc6S
# Summary of the method: as §1
# Gal4S(b1-4)GlcNAc = target: Gal4S(b1-4)GlcNAc
# Summary of the method: as §1
# Gal4S6S(b1-4)GlcNAc = target: Gal4S6S(b1-4)GlcNAc
# Summary of the method: as §1
# Gal6P(b1-4)GlcNAc = target: Gal6P(b1-4)GlcNAc
# Summary of the method: as §1
# Gal6S(b1-3)GlcNAc = target: Gal6S(b1-3)GlcNAc
# Summary of the method: as §1
# Gal6S(b1-3)GlcNAc6S = target: Gal6S(b1-3)GlcNAc6S
# Summary of the method: as §1
# Gal6S(b1-4)Glc = target: Gal6S(b1-4)Glc
# Summary of the method: as §1
binder,measurement,setting,value
PX14375D-bvu-513-34-513 (Bacteroides vulgatus) (protein) TEDTFWKDETDFNLALTSCYTPLKNALNGGYYGTRGVMLRIARADEVDFRNDISDVYTVNRFTNSNTNSLTQGMFYQFYNALYRTNSIMQKLEEKKEQFSTDFQNSVKGECLFIRGFYLFQLAKEFKDAPLRLTASQSPSTFPLAKSSQADIWAQAKEDLKTAASLLPITNKIGKPTQGAAYAALGKIYVYEENWQEAINVLEPLTQNPYTYKLVEDFNWNFDDTHENNAESIFELLIEDVGGTDLWGDGENINSTQSNTRPKEYAAAEVGGWYEANPTQQIMDIFWKEKDKDGNFDYRARCSVAWDYEGCTYYQRPFREVFAQDKWKTYWILKYQNWKTQKDEPAPPKSFINERAIRYADVLLMLAEAYMNKGALDTSIGYINQIRRRANLNDYSGPITKEGVFEDLVHQRAIEFFVEGERFYDLRRWGLLEQTLKTCDDTRYKNYQTGKSDNINKFNYFPIPAKELDTNPLCTPSEGW,glycan array binding signal (z-score),[1],0.944
same,glycan array binding signal (z-score),[2],0.525
same,glycan array binding signal (z-score),[3],0.557
same,glycan array binding signal (z-score),[4],0.824
same,glycan array binding signal (z-score),[5],-0.026
same,glycan array binding signal (z-score),[6],-0.639
same,glycan array binding signal (z-score),[7],-0.802
same,glycan array binding signal (z-score),[8],0.258
same,glycan array binding signal (z-score),[9],0.121
same,glycan array binding signal (z-score),[10],-0.114
same,glycan array binding signal (z-score),[11],-0.747
same,glycan array binding signal (z-score),[12],-0.16
same,glycan array binding signal (z-score),[13],-0.128
same,glycan array binding signal (z-score),[14],-0.257
same,glycan array binding signal (z-score),[15],-0.736
same,glycan array binding signal (z-score),[16],-0.033
same,glycan array binding signal (z-score),[17],-0.438
same,glycan array binding signal (z-score),[18],-0.604
same,glycan array binding signal (z-score),Gal(b1-4)GlcNAc6P,0.457
same,glycan array binding signal (z-score),Gal(b1-6)Gal,-0.981
same,glycan array binding signal (z-score),Gal3S(b1-3)GalNAc,-0.283
same,glycan array binding signal (z-score),Gal3S(b1-3)GlcNAc,0.29
same,glycan array binding signal (z-score),[19],0.555
same,glycan array binding signal (z-score),Gal3S(b1-4)Glc,1.3
same,glycan array binding signal (z-score),Gal3S(b1-4)Glc6S,0.049
same,glycan array binding signal (z-score),Gal3S(b1-4)GlcNAc,0.226
same,glycan array binding signal (z-score),[20],0.586
same,glycan array binding signal (z-score),[21],1.28
same,glycan array binding signal (z-score),[22],0.692
same,glycan array binding signal (z-score),Gal3S4S(b1-4)GlcNAc,-0.493
same,glycan array binding signal (z-score),Gal3S6S(b1-4)GlcNAc,0.747
same,glycan array binding signal (z-score),Gal3S6S(b1-4)GlcNAc6S,-0.104
same,glycan array binding signal (z-score),Gal4S(b1-4)GlcNAc,-0.038
same,glycan array binding signal (z-score),Gal4S6S(b1-4)GlcNAc,-0.109
same,glycan array binding signal (z-score),Gal6P(b1-4)GlcNAc,0.035
same,glycan array binding signal (z-score),Gal6S(b1-3)GlcNAc,-1.3
same,glycan array binding signal (z-score),Gal6S(b1-3)GlcNAc6S,0.17
same,glycan array binding signal (z-score),Gal6S(b1-4)Glc,0.233

# Part of the list above, set out differently:
binder | measurement | setting | value
PX14375D-bvu-513-34-513 (Bacteroides vulgatus) (protein) TEDTFWKDETDFNLALTSCYTPLKNALNGGYYGTRGVMLRIARADEVDFRNDISDVYTVNRFTNSNTNSLTQGMFYQFYNALYRTNSIMQKLEEKKEQFSTDFQNSVKGECLFIRGFYLFQLAKEFKDAPLRLTASQSPSTFPLAKSSQADIWAQAKEDLKTAASLLPITNKIGKPTQGAAYAALGKIYVYEENWQEAINVLEPLTQNPYTYKLVEDFNWNFDDTHENNAESIFELLIEDVGGTDLWGDGENINSTQSNTRPKEYAAAEVGGWYEANPTQQIMDIFWKEKDKDGNFDYRARCSVAWDYEGCTYYQRPFREVFAQDKWKTYWILKYQNWKTQKDEPAPPKSFINERAIRYADVLLMLAEAYMNKGALDTSIGYINQIRRRANLNDYSGPITKEGVFEDLVHQRAIEFFVEGERFYDLRRWGLLEQTLKTCDDTRYKNYQTGKSDNINKFNYFPIPAKELDTNPLCTPSEGW | glycan array binding signal (z-score) | [8] | 0.258
same | glycan array binding signal (z-score) | [21] | 1.28
same | glycan array binding signal (z-score) | Gal3S6S(b1-4)GlcNAc6S | -0.104
